Experimental findings from article PMC6471829 are described below.

Protein sequences, listed by entry. Tags and fused reporters are not part of them.
UniProt P48431: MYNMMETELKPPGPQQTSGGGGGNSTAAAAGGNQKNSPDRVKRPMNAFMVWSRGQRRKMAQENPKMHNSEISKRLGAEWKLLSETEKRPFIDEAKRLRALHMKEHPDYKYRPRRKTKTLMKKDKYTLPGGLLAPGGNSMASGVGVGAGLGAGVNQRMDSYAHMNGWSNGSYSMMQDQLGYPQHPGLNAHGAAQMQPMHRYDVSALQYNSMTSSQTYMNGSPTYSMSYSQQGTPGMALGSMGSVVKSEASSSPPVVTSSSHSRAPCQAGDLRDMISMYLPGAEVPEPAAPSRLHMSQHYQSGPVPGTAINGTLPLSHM
UniProt Q01860: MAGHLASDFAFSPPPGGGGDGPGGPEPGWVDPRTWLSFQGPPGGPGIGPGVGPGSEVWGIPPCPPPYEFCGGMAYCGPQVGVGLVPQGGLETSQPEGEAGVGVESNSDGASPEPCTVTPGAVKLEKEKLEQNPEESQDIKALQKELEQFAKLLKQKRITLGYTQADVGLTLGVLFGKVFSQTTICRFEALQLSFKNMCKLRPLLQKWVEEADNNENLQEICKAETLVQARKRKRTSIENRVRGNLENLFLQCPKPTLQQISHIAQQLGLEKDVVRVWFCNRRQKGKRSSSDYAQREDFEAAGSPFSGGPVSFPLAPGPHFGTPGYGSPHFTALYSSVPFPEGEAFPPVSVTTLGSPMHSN

Assay [1] deals with HA-SOX2 (human) (UniProt P48431). The experiment in a line: co-IP; Figure S4B-E: SOX2 (wild type or HMG-domain mutants) with OCT4 and PAX6, also with increasing amounts of expressed PAX6; cells and antibodies not shown; general co-IP protocol of the methods.
In assay [2] the target is SOX2 (human (endogenous in hESCs and hESC-derived NECs)) (UniProt P48431). The experiment in a line: co-IP; SOX2 immunoprecipitated from lysates of undifferentiated hESCs or hESC-derived neural epithelial cells; 1 mg protein, antibody 90 min at 4 °C, Protein-G Dynabeads 1 h; lysis buffer 40 mM HEPES pH 7.4, 5 mM EDTA, 0.05% 2-mercaptoethanol, 10 mM NaCl, 0.5% NP40; immunoblot. On the technique in general: A western blot detects proteins with antibodies after separation by electrophoresis.

No constants are given. Whether binding was seen depends on the method and setting. In cells and extracts the contact can be indirect. Some entries that bind do so weakly or less than the wild type.

In the case of Flag-OCT4 (from UniProt Q01860 1-360), the binding result in assay [1] was “binds”.
With OCT4 (from UniProt Q01860 1-360), in assay [2], the binding result is reported as “binds”.
